Results are given in words; binding and its absence hold for the method and conditions named. In cells and extracts the contact can be indirect. A result given as binding can be weak or reduced; the word gives no strength.
Target: Integrin α6 (human (endogenous in T4121 and T387 GSCs))
Test: co-IP; lysates of T4121 or T387 GSCs transduced with WISP1 overexpression lentivirus; IP lysis buffer (50 mM Tris-HCl pH 7.8, 137 mM NaCl, 1 mM EDTA, 1% Triton X-100, 10% glycerol); IP with anti-Integrin α6 or anti-Integrin β1 antibody or isotype IgG overnight at 4 °C, protein A/G Plus agarose; immunoblot with anti-WISP1, anti-Integrin α6 and anti-Integrin β1

- binding: binds
B1: Wnt-induced signaling protein 1 (WISP1) (ligand, UniProt O95388 23-367)
chain: TALSPAPTTMDFTPAPLEDTSSRPQFCKWPCECPPSPPRCPLGVSLITDGCECCKMCAQQLGDNCTEAAICDPHRGLYCDYSGDRPRYAIGVCAQVVGVGCVLDGVRYNNGQSFQPNCKYNCTCIDGAVGCTPLCLRVRPPRLWCPHPRRVSIPGHCCEQWVCEDDAKRPRKTAPRDTGAFDAVGEVEAWHRNCIAYTSPWSPCSTSCGLGVSTRISNVNAQCWPEQESRLCNLRPCDVDIHTLIKAGKKCLAVYQPEASMNFTLAGCISTRSYQPKYCGVCMDNRCCIPYKSKTIDVSFQCPDGLGFSRQVLWINACFCNLSCRNPNDIFADLESYPDFSEIAN
